Test [1] has as its target flag-tagged wild-type human YAP (human) (UniProt P46937). Nature of the test: affinity purification with mass spectrometry; flag-tagged human TAZ or YAP expressed by retrovirus in C2C12 mature myotubes (differentiated for 72 hours); lysis in 150 mM NaCl, 20 mM Tris-HCl pH 7.5, 1% Triton X100; anti-Flag M2 agarose beads, 4°C; cut-off ratio ≥2 against empty vector and p < .05.

Protein sequences, listed by entry. Tags and fused reporters are not part of them.
UniProt P46937: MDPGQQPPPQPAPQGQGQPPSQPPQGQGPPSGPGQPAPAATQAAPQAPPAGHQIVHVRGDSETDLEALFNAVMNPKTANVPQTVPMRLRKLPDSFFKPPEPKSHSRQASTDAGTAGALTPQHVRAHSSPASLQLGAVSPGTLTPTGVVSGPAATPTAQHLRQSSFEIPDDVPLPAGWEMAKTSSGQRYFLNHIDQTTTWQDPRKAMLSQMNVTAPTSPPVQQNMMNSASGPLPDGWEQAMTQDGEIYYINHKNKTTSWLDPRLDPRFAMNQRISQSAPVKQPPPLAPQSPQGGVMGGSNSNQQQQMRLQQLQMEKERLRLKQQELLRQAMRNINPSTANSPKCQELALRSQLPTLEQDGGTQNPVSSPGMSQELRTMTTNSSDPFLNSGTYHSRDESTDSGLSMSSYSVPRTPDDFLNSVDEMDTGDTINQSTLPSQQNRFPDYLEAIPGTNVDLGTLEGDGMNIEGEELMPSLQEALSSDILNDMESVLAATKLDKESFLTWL
UniProt Q9GZV5: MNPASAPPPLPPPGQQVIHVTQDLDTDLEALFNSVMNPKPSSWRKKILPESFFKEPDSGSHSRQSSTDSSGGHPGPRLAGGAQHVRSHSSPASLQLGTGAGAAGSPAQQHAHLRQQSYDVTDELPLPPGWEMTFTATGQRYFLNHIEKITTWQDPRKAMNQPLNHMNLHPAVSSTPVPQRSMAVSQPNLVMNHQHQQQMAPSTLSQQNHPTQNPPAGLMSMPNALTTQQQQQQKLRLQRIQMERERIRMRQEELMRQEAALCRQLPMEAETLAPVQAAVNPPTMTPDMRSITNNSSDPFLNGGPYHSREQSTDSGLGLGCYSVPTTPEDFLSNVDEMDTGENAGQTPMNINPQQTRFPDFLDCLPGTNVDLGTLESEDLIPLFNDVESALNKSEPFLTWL
UniProt Q9JLV1: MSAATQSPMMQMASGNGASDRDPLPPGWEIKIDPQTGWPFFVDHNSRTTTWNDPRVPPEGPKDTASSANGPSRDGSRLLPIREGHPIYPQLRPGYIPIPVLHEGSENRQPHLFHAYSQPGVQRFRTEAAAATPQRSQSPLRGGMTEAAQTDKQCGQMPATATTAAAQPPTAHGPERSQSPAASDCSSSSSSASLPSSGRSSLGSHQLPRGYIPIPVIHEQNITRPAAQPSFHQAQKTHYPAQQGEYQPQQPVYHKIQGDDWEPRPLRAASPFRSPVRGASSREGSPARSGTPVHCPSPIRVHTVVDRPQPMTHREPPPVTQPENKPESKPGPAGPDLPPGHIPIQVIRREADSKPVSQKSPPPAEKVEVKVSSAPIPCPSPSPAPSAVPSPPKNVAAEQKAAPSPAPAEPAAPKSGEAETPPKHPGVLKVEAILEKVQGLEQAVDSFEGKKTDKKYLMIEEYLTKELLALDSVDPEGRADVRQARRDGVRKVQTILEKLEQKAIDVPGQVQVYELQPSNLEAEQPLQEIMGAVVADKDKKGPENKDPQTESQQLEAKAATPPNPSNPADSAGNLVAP
UniProt P10085: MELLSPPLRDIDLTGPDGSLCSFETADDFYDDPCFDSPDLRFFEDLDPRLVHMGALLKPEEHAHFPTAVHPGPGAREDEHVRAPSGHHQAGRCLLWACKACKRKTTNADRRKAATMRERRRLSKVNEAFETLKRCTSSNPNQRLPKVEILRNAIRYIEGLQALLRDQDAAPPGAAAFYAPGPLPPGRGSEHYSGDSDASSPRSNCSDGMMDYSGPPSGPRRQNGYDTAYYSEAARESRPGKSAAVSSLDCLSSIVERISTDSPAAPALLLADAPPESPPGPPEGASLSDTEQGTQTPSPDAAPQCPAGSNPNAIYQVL
UniProt Q03347: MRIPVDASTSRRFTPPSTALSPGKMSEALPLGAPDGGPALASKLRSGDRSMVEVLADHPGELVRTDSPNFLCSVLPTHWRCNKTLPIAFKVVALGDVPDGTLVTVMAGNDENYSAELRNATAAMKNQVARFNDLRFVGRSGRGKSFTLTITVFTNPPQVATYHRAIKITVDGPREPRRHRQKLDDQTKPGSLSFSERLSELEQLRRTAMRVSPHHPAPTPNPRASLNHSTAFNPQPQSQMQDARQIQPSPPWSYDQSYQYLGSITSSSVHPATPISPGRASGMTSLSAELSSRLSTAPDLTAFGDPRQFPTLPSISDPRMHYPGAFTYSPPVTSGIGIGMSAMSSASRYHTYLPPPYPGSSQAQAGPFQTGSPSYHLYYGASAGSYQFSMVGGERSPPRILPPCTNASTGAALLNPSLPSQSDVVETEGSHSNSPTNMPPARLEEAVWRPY
UniProt P30051: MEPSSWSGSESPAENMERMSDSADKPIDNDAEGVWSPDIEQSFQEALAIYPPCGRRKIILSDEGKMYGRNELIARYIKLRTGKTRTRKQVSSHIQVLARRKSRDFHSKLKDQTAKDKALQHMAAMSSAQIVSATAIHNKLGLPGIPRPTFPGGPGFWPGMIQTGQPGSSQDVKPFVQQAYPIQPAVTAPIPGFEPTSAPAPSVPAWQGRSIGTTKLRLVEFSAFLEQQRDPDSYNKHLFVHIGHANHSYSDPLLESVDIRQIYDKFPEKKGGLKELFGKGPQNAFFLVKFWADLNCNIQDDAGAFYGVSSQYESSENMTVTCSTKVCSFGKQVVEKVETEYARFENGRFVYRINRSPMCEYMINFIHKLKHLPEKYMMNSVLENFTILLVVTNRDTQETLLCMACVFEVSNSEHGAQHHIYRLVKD
UniProt P62259: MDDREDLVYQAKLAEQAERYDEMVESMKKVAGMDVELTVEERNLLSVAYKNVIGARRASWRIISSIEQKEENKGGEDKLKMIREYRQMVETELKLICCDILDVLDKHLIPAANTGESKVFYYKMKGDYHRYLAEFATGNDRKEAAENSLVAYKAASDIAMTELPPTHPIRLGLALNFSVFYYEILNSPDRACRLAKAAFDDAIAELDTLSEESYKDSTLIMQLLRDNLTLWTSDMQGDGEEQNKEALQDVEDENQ
UniProt P63101: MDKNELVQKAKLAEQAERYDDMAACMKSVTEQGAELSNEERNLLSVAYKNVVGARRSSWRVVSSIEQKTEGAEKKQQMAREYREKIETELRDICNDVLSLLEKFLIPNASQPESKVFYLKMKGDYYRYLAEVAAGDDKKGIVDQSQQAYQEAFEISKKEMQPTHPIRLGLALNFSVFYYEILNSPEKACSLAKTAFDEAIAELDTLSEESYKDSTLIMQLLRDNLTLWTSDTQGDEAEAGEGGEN

For test [2], the target named is flag-tagged wild-type human TAZ (pMSCV-3xFlag TAZ-IRES-eGFP) (human) (UniProt Q9GZV5). The test is described as above.
For test [3], the target named is flag-tagged wild-type human YAP (human) (UniProt P46937). Put plainly: affinity purification with mass spectrometry; flag-tagged human TAZ or YAP expressed by retrovirus in proliferating C2C12 myoblasts (50% cell density); lysis in 150 mM NaCl, 20 mM Tris-HCl pH 7.5, 1% Triton X100; anti-Flag M2 agarose beads, 4°C; cut-off ratio ≥2 against empty vector and p < .05.

In test [4] the target is flag-tagged wild-type human TAZ (pMSCV-3xFlag TAZ-IRES-eGFP) (human) (UniProt Q9GZV5). The test is described as above.
Test [5] shares this target. Nature of the test: affinity purification with mass spectrometry; same Flag immunoprecipitation and mass spectrometry from C2C12 myoblasts/myotubes; the text does not tell in which of the two states the hit was found.
In test [6] the target is flag-tagged wild-type human YAP (human) (UniProt P46937). Described as above.

These are yes or no findings as the source states them, for the method shown. Binding seen in cells or lysates may run through a third protein. These calls come from enrichment with a bait or labelling near it, and not all partners need be listed. For part of these data: A no says only that the protein was not detected with the bait.

Consider Bag3 (from UniProt Q9JLV1 1-577), for which the binding entry in test [1] and in test [2] was “binds” in each case.
Regarding MyoD (from UniProt P10085 1-318), the binding result in test [3], in test [4], in test [1] and in test [2] was “no binding” in each case.
For the molecule Runx1 (from UniProt Q03347 1-451), the binding entry in test [4] is listed as “binds”.
With Tead1 (from UniProt P30051 1-426), the binding result in test [5] is recorded as “binds”.
Still for that read-out and setting: the value for Ywhae (from UniProt P62259 1-255) was “binds”; that for Ywhaz (from UniProt P63101 1-245) was “binds”.

B1: Dvl3 (protein, UniProt Q61062 1-716)
chain: MGETKIIYHLDGQETPYLVKLPLPAERVTLADFKGVLQRPSYKFFFKSMDDDFGVVKEEISDDNAKLPCFNGRVVSWLVSAEGSHPEPAPFCADNPSELPPSMERTGGIGDSRPPSFHPHASGGSQENLDNDTETDSLVSAQRERPRRRDGPEHAARLNGTTKGERRREPGGYDSSSTLMSSELETTSFFDSDEDDSTSRFSSSTEQSSASRLMRRHKRRRRKQKVSRIERSSSFSSITDSTMSLNIITVTLNMEKYNFLGISIVGQSNERGDGGIYIGSIMKGGAVAADGRIEPGDMLLQVNEINFENMSNDDAVRVLREIVHKPGPITLTVAKCWDPSPRGCFTLPRSEPIRPIDPAAWVSHTAAMTGTFPAYGMSPSLSTITSTSSSITSSIPDTERLDDFHLSIHSDMAAIVKAMASPESGLEVRDRMWLKITIPNAFIGSDVVDWLYHNVEGFTDRREARKYASNLLKAGFIRHTVNKITFSEQCYYIFGDLCGNMANLSLHDHDGSSGASDQDTLAPLPHPGAAPWPMAFPYQYPPPPHPYNPHPGFPELGYSYGGGSASSQHSEGSRSSGSNRSGSDRRKEKDPKAGDSKSGGSGSESDHTTRSSLRGPRERAPSERSGPAASEHSHRSHHSLTSSLRSHHTHPSYGPPGVPPLYGPPMLMMTPPPAAMGPPGAPPGRDLASVPPELTASRQSFRMAMGNPSEFFVDVM
In the case of B1, in test [2], the binding result is on record as “no binding”.

B2: Ywhag (protein, UniProt P61982 1-247)
chain: MVDREQLVQKARLAEQAERYDDMAAAMKNVTELNEPLSNEERNLLSVAYKNVVGARRSSWRVISSIEQKTSADGNEKKIEMVRAYREKIEKELEAVCQDVLSLLDNYLIKNCSETQYESKVFYLKMKGDYYRYLAEVATGEKRATVVESSEKAYSEAHEISKEHMQPTHPIRLGLALNYSVFYYEIQNAPEQACHLAKTAFDDAIAELDTLNEDSYKDSTLIMQLLRDNLTLWTSDQQDDDGGEGNN
In the case of B2, the binding entry in test [6] and in test [5] was “binds” in each case.

B3: Amotl1 (protein, UniProt Q9D4H4 1-968)
chain: MRRAKSRRGPCEPVLRAPPPICYSPSSPVQILEDPAYFYPDLQLYSGRHEASTLTVEASGGLRGKSVEDPLSSFHSPNFLRTPEVEMRGSEDVASGRVLQRLIQEQLRYGTPTENMNLLAIQHQATGSAGPAHATTNFSSTETLTQEDPQMVYQSARQEPQGQEHQGDNTVMEKQVRSTQPQQNNEELPTYEEAKAQSQFFRGQQQQQQQQQQQQQQQQQQGQGPLSHTYYMAGGTSQKSRTEGRPTVNRANSGQAHKDEALKELKQGHVRSLSERIMQLSLERNGAKQHLPSSGNGKSFKAGGEPSPAQPVCKALDPRGPPPEYPFKTKPMKSPVSKNQDHGLYYNDQHPGVLHEMVKPYPAPQPARTEVAVLRYQPPPEYGVTSRPCQLPFPSTVQQHSPMSSQTSSIGGTLHSVSLPLPLPISLAASQPLPASPNQQLGPDAFAIVERAQQMVEILTEENRVLHQELQGCYDNADKLHKFEKELQSISEAYESLVKSTTKRESLDKAMRTKLEGEIRRLHDFNRDLRDRLETANRQLSSREYDGHEDKAAESHYVSQNKEFLKEKEKLEMELAAVRTASEDHRRHIEILDQALSNAQARVIKLEEELREKQAYVEKVEKLQQALTQLQSACEKRGQMERRLRTWLERELDALRTQQKHGTGPPVSLPECNAPALMELVREKEERILALEADMTKWEQKYLEESTIRHFAMSAAAAATAERDTTISNHSRNGSYGESSLEAHIWPEEEEVVQANRRCQDMEYTIKNLHAKIIEKDAMIKVLQQRSRKDAGKTDSASLRPARSVPSIAAATGTHSRQTSLTSSQLTEEKKEEKTTWKGSIGFLLGKEHQGQASAPLLPTTPASALSLPASTTSASSTHAKTGSKDSSTQTDKSTELFWPSMASLPSRGRLSTAPSNSPILKHPAAKGAVEKQENSPGHGKASEHRGRVSNLLHKPEFPDGEMMEVLI
For the molecule B3, the binding entry in test [6] and in test [5] was “binds” throughout.

B4: Unc45a (protein, UniProt Q99KD5 1-944)
chain: MTVSGPETPEPRPSDPGASSAEQLRKEGNELFKCGDYEGALTAYTQALSLGATPQDQAILHRNRAACHLKLEDYSKAESEASKAIEKDGGDVKALYRRSQALEKLGRLDQAVLDLKRCVSLEPKNKVFQESLRNIGGQIQEKVRYMSSTDAKVEQMFQILLDPKEKGTEKKQKASQNLVVLAREDAGAEKIFRSNGVQLLQRLLDTEETDLMLAALRTLVGICSEHQSRTVATLSVLGTRRVVSILGVENQAVSLAACHLLQVIFDALKEGVKKGFRGKEGAIIVDPARELKVLINSLLELLTEVGVSGQGRDNALTLLIKMVPRKSPKDPNNSLTLWVIDQGLKKILEVGGSLQDAAGELTVTANSRMSASILLSKLFDDLKCDAERENFHRLCENYIRNWFEGHGLAGKLRAIQTVSCLLQGPCDAGNRALELSGVMESVIALCASEREEEQLVAVEALIHAAGKAKRASFITANGVSLLKDLYKGSERDSIRIRALVGLCKLGSAGGTDFSMKQFAEGSTLKLAKQCRKWLCNDQIDAGTRRWAVEGLAYLTFDADVKEEFVEDEAALKALFQLSRSEERSVLFAVGSALVNCTNSYDYEEPDPKMVELAKYAKQHVPEQHPKDKPSFVRARVKKLLAAGVVSAMTCMVKTESPVLTNSCRELLSRVFLALVEEVEDRGTVVAQGGGKALLPLALEGTDVGQTKAAQALAKLTITSNPEMTFPGERIYEVVRPLVSLLHLSCSGLQNFEALMALTNLAGISERLRQKILKEKAVPMIEGYMFEEHEMIRRAATECMCNLAMSKEVQDLFEAQGNDRLKLLVLYSGEDDELLRRAAAGGLAMLTSMRPALCSRIPQVTTHWLEILQALLLSPNQELQHRGTVVVLNMMQSSKEIAGTLMESEVLEILSVLAKGEESPVTRAAAACLEKAVEYRLIQPNQDGE
On to B4, for which the binding result in test [2] is “binds”.

B5: Dvl2 (protein, UniProt Q60838 1-736)
chain: MAGSSAGGGGVGETKVIYHLDEEETPYLVKIPVPAERITLGDFKSVLQRPAGAKYFFKSMDQDFGVVKEEISDDNARLPCFNGRVVSWLVSSDTPQPEVAPPAHESRTELVPPPPPLPPLPPERTSGIGDSRPPSFHPNVSSSHENLEPETETESVVSLRRDRPRRRDSSEHGAGGHRPGGPSRLERHLAGYESSSTLMTSELESTSLGDSDEDDTMSRFSSSTEQSSASRLLKRHRRRRKQRPPRMERTSSFSSVTDSTMSLNIITVTLNMEKYNFLGISIVGQSNERGDGGIYIGSIMKGGAVAADGRIEPGDMLLQVNDMNFENMSNDDAVRVLRDIVHKPGPIVLTVAKCWDPSPQAYFTLPRNEPIQPIDPAAWVSHSAALTGAFPAYPGSSSMSTITSGSSLPDGCEGRGLSVHMDMASVTKAMAAPESGLEVRDRMWLKITIPNAFLGSDVVDWLYHHVEGFPERREARKYASGLLKAGLIRHTVNKITFSEQCYYVFGDLSGGCESYLVNLSLNDNDGSSGASDQDTLAPLPGATPWPLLPTFSYQYPAPHPYSPQPPPYHELSSYTYGGGSASSQHSEGSRSSGSTRSDGGAGRTGRPEERAPESKSGSGSESELSSRGGSLRRGGEPGGTGDGGPPPSRGSTGAPPNLRALPGLHPYGAPSGMALPYNPMMVVMMPPPPPPVSTAVQPPGAPPVRDLGSVPPELTASRQSFHMAMGNPSEFFVDVM
Take B5: the binding entry in test [1] is “binds”; in test [2] it was “no binding”.

Source of the values: paper PMC5575518.
